The source of these data is article PMC7819943, “Rice protein-binding microarrays: a tool to detect cis-acting elements near promoter regions in rice”.

The list shows a part of the results.

This assay deals with T1, OsSMF1 (Oryza sativa, UniProt Q6ZLB0 1-436).
T1 sequence: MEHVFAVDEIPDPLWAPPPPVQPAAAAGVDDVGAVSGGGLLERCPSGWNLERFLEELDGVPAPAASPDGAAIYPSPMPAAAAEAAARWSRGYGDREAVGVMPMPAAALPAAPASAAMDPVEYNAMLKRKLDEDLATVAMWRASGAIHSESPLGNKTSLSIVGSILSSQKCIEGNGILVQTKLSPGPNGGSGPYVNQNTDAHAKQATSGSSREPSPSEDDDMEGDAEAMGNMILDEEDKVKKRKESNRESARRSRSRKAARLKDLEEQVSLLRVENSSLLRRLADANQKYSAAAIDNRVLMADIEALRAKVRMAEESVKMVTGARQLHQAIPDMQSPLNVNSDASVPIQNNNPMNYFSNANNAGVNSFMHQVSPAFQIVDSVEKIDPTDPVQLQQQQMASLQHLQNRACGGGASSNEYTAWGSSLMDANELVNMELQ
Kind of assay: protein-binding microarray (RPBM); PBS, 2% BSA, 51.3 ng/ul salmon testes DNA, 50 uM zinc acetate, 200 nM TF, 25 C, 1 h; high values mean tight binding. The conditions noted are these: protein: recombinant; tags: N-terminal polyhistidine and DsRed monomer fusion (pET32a); chain copies: 2; label: CyDye5-dUTP incorporated in the synthesized complementary strand; 3' TTTTT single-stranded linker to array surface; dsDNA, one strand shown. The method, boiled down:
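Per-feature fluorescence intensity (arbitrary units), read on an Axon 4000B scanner, is the binding signal. Transcription factors carrying an N-terminal polyhistidine tag and DsRed fusion were expressed in E. coli BL21-CodonPlus and purified on Ni–NTA. A custom Agilent array, made double-stranded by primer extension with Cy5-dUTP and blocked with 2% BSA, was incubated with 200 nM protein in PBS, 2% BSA, salmon testes DNA and 50 µM zinc acetate at 25 °C for 1 h and then washed.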
With “CATCCATTCTCCTCCCCTCCCGTCATCCACTCATCCCGTGCGGAGTCACCTAGTGCAG”, the binding signal is 3690 fluorescence intensity (a.u.).

With “GGCCGGCGGCTGAGGCGAGATTCGCGGCGACCACGTCGGCCGGAGTCACCTAGTGCAG”, the binding signal was 5170 fluorescence intensity (a.u.).

As to “AAATATAGAGATTTATTAACATAACAGCCTATCCACGTGGCGGAGTCACCTAGTGCAG”, the binding signal was 17200 fluorescence intensity (a.u.). For “TCAACCATGGGTCACCTAGGTCACAGTCACATTAGATCTGCGGAGTCACCTAGTGCAG”, the binding signal was 4090 fluorescence intensity (a.u.). Take “GTCCTCGCCCGCCACCGCTCGCCGCCGGCGTCTAGGGTCGCGGAGTCACCTAGTGCAG”: the binding signal was 3960 fluorescence intensity (a.u.).

With “CCGATCGGTCGTGACCACCAAGTCATCTTGAAATTCATCACGGAGTCACCTAGTGCAG”, the binding signal was 4710 fluorescence intensity (a.u.). For the sequence “ATTTTATTATTCTTGCAGATCAAATTGCCACGTAAGCGTCCGGAGTCACCTAGTGCAG”, the binding signal is 47800 fluorescence intensity (a.u.).

With “GGAGAAACACCAAGCTGACATGTGCATTCCAGATCGCAGACGGAGTCACCTAGTGCAG”, the binding signal is 5080 fluorescence intensity (a.u.). “GCCCAACTTATATGCCACGTCACTAGGACAGCTGGCCCCACGGAGTCACCTAGTGCAG”: the binding signal was 18000 fluorescence intensity (a.u.).

Turning to “GTGGCATTAGTTTGTCATTTGTGATCGAACCGCTTTGACACGGAGTCACCTAGTGCAG”, the binding signal is 3500 fluorescence intensity (a.u.). For “CTATGTCTGTGTTTGATGATTGCAAGCTGATGTGGGATGGCGGAGTCACCTAGTGCAG”, the binding signal is 3280 fluorescence intensity (a.u.). On to “CCATCGCAAAATCCACCTCAGCTAGCTACCCAAGCGCACGCGGAGTCACCTAGTGCAG”, for which the binding signal is 5010 fluorescence intensity (a.u.). Regarding “CCACCACTACGACGTAAGCATCCACACTACTACAGTCCACCGGAGTCACCTAGTGCAG”, the binding signal was 3770 fluorescence intensity (a.u.). Consider “GGCGGTATCGACGAAGAATCTCGGGGCGGTGGGGAGGTTTCGGAGTCACCTAGTGCAG”, for which the binding signal is 4450 fluorescence intensity (a.u.). Turning to “GGGATGTGCGGGCGGCTCCGGCCTACGTGGGCGTGCCGGGCGGAGTCACCTAGTGCAG”, the binding signal is 6000 fluorescence intensity (a.u.). As for “GCCACAAGTTTAAAGTGAAGCAACCATCAATTTTGGCCCACGGAGTCACCTAGTGCAG”, the binding signal is 3210 fluorescence intensity (a.u.).

“CGACCTTAATGTTCAACGTGTCATGCATTAGTGAAATAATCGGAGTCACCTAGTGCAG”: the binding signal was 4610 fluorescence intensity (a.u.). On to “CCCAGGAACATGCATTCGTTCCATCCCTTTGATCAGCTGACGGAGTCACCTAGTGCAG”, for which the binding signal is 3650 fluorescence intensity (a.u.). As for “GTCCTCATCCTAGGTAAAATAACCACGTCATCTCACAGGTCGGAGTCACCTAGTGCAG”, the binding signal was 20700 fluorescence intensity (a.u.). To “GCCTCCCCATCGCGCTGCCACCTCCGCCTCCCGCCGTTCCCGGAGTCACCTAGTGCAG” belongs 4670 fluorescence intensity (a.u.); to “GCTCGTCGTTGTGCCTCGCTCCAAACCGCCGAACCCGTGGCGGAGTCACCTAGTGCAG”, 3340 fluorescence intensity (a.u.). In the case of “GAAAATTAACAAGTTTAAGGAGTCAGCATGGAAATTCGTCCGGAGTCACCTAGTGCAG”, the binding signal was 5780 fluorescence intensity (a.u.). For “CCCTCTTCGTCGACACCTCATCTCCTCCCCAAGAACCAGCCGGAGTCACCTAGTGCAG”, the binding signal is 3260 fluorescence intensity (a.u.).
